Taken from: PubChem BioAssay AID1671195 (Yale University, 2021)
Here is one part, drawn at random, of about 22,000 reagents tested. Of all reagents, about 1,510 (6.9%) are marked active. 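Active includes knockdowns raising or lowering LDL uptake; positive z-scores mean more uptake, negative mean less.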 Unmarked entries are inactive.

Purpose: 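Genes whose knockdown alters LDL uptake in liver cancer cells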 (primary screen)
Cell system: human Huh7 hepatoma cells
Reagents: siRNA pool against human genes, 18 nM
Duration: about 2 to 2.5 days of knockdown, then 8 h LDL uptake
Challenge: DiI-labelled LDL at 30 µg/ml for 8 h, in lipoprotein-deficient serum medium
Measurement: 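Per-cell DiI-LDL intensity by automated imaging; well means scaled to the plate median and given as a robust z-score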
Reading the numbers: robust z-score: higher = more LDL uptake after knockdown
Call rule: 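a gene counts as active if at least two replicate z-scores exceed ±2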

Silencing of OACYLP came out at: robust z-score, replicate 1 = 0.858; robust z-score, replicate 2 = 1.07; robust z-score, replicate 3 = 1.06. For LRP4, the values are robust z-score, replicate 1 = 0.201; robust z-score, replicate 2 = 0.671; robust z-score, replicate 3 = 0.15. After knock-down of MEIS1 the results were robust z-score, replicate 1 = 1.07; robust z-score, replicate 2 = 0.236; robust z-score, replicate 3 = 1.31. Knock-down of EFEMP2 came out at: robust z-score, replicate 1 = 0.866; robust z-score, replicate 2 = 1.55; robust z-score, replicate 3 = 1.69. XIAP showed robust z-score, replicate 1 = 0.584; robust z-score, replicate 2 = 0.231; robust z-score, replicate 3 = 0.255. TSBP1-AS1 scored robust z-score, replicate 1 = -1.29; robust z-score, replicate 2 = -1.5; robust z-score, replicate 3 = -1.2.

With knock-down of KATNBL1 the results were robust z-score, replicate 1 = 0.193; robust z-score, replicate 2 = 0.263; robust z-score, replicate 3 = 0.175. With knock-down of LDHD, the record shows robust z-score, replicate 1 = -2.2 (active); robust z-score, replicate 2 = -2.05; robust z-score, replicate 3 = -2.32. XAGE5 gave robust z-score, replicate 1 = 0.722; robust z-score, replicate 2 = 0.865; robust z-score, replicate 3 = 1.11. Knock-down of FOSL2 came out at: robust z-score, replicate 1 = -0.747; robust z-score, replicate 2 = -0.184; robust z-score, replicate 3 = 0.84. With knock-down of ARSF, the screen gave robust z-score, replicate 1 = 2.79; robust z-score, replicate 2 = 1.6; robust z-score, replicate 3 = 1.45. Knock-down of OR13C4 gave: robust z-score, replicate 1 = 0.146; robust z-score, replicate 2 = -0.558; robust z-score, replicate 3 = -0.191.

Targets above whose target name begins with O or o:
OACYLP — robust z-score, replicate 1: 0.858; robust z-score, replicate 2: 1.07; robust z-score, replicate 3: 1.06
OR13C4 — robust z-score, replicate 1: 0.146; robust z-score, replicate 2: -0.558; robust z-score, replicate 3: -0.191
